PubChem BioAssay AID1259308, NCATS – 2017
The whole screen tested about 59,000 reagents; this is a random part of them. About 1,510 of all reagents (2.6%) were called active. 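Calls use total luciferase alone and ignore viability, so some active siRNAs may act by altering cell number.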 The numbers tell different reagents against one gene apart. Not all columns of the deposit are shown. Reagent sequences are not shown.

Screen: 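Genes whose loss raises luciferase production in HEK293 cells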 (primary screen)
Cell system: human HEK293 embryonic kidney cells stably expressing firefly luciferase (HEK-CMV-Luc2-Hygro)
Reagent: single siRNA against human genes, 0.8 pmol siRNA per well
Timing: 72 h
Detection: 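Reporter luminescence and viable-cell signal on separate replicate plates, given as percent of non-targeting control and median/MAD z-scores, plus per-cell luciferase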
Reading the numbers: total luciferase, z-score and total luciferase, % of control: higher = more reporter protein produced
Hit rule: 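An siRNA counts as active if its total luciferase robust z-score exceeds 3; genes with two or more such siRNAs out of three were retested with fresh siRNAs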
Meaning of the calls: active = raised luciferase; inactive = no rise

Silencing of TDRD10 #1 resulted in: total luciferase, z-score -0.0688; total luciferase, % of control 80.5; inactive.
After knock-down of TDRD10 #2, the screen gave total luciferase, z-score 2.87; total luciferase, % of control 139; inactive.
TDRD10 #3 gave total luciferase, z-score 4.61; total luciferase, % of control 174; active.
After knock-down of SURF6 #1, the screen gave total luciferase, z-score -0.631; total luciferase, % of control 69.3; inactive.
With knock-down of SURF6 #2, the record shows total luciferase, z-score 0.347; total luciferase, % of control 88.8; inactive.
Against SURF6 #3 the deposit lists total luciferase, z-score 0.37; total luciferase, % of control 89.2; inactive.
With knock-down of PAPOLA #1, the screen gave total luciferase, z-score -0.317; total luciferase, % of control 75.6; inactive.
Against PAPOLA #2 the deposit lists total luciferase, z-score 1.81; total luciferase, % of control 118; inactive.
After knock-down of PAPOLA #3, the screen gave total luciferase, z-score -1.02; total luciferase, % of control 61.7; inactive.
CCDC183 #1 scored total luciferase, z-score -1.01; total luciferase, % of control 61.9; inactive.
Silencing of CCDC183 #2 resulted in: total luciferase, z-score 0.839; total luciferase, % of control 98.6; inactive.
Against CCDC183 #3, the entry reads total luciferase, z-score 0.86; total luciferase, % of control 99; inactive.
After knock-down of MEAF6 #1, the screen gave total luciferase, z-score -0.762; total luciferase, % of control 66.7; inactive.
After knock-down of MEAF6 #2, the screen gave total luciferase, z-score 0.537; total luciferase, % of control 92.6; inactive.
MEAF6 #3 gave total luciferase, z-score 0.103; total luciferase, % of control 83.9; inactive.
FNBP4 #1 showed total luciferase, z-score 1.83; total luciferase, % of control 118; inactive.
After knock-down of FNBP4 #2, the screen gave total luciferase, z-score 0.237; total luciferase, % of control 86.6; inactive.
Depletion of FNBP4 #3 came out at: total luciferase, z-score 0.0823; total luciferase, % of control 83.5; inactive.
Silencing of FXYD3 #1 resulted in: total luciferase, z-score 1.96; total luciferase, % of control 121; inactive.
After knock-down of FXYD3 #2, the screen gave total luciferase, z-score 1.01; total luciferase, % of control 102; inactive.
With knock-down of FXYD3 #3 the results were total luciferase, z-score 1.72; total luciferase, % of control 116; inactive.
After knock-down of PPP1R17 #1, the screen gave total luciferase, z-score -0.33; total luciferase, % of control 75.3; inactive.
Against PPP1R17 #2, the entry reads total luciferase, z-score 0.336; total luciferase, % of control 88.6; inactive.
Knock-down of PPP1R17 #3 resulted in: total luciferase, z-score -0.0885; total luciferase, % of control 80.1; inactive.
WFDC5 #1 scored total luciferase, z-score 1.58; total luciferase, % of control 113; inactive.
Depletion of WFDC5 #2 resulted in: total luciferase, z-score 0.99; total luciferase, % of control 102; inactive.
After knock-down of WFDC5 #3 the results were total luciferase, z-score 0.142; total luciferase, % of control 84.7; inactive.
Depletion of WASL #1 resulted in: total luciferase, z-score -1.48; total luciferase, % of control 52.5; inactive.
After knock-down of WASL #2 the results were total luciferase, z-score 0.627; total luciferase, % of control 94.4; inactive.
With knock-down of WASL #3 the results were total luciferase, z-score 0.706; total luciferase, % of control 95.9; inactive.
Depletion of H3C8 #1 resulted in: total luciferase, z-score 3.64; total luciferase, % of control 154; active.
After knock-down of H3C8 #2, the record shows total luciferase, z-score 1.08; total luciferase, % of control 103; inactive.
Against H3C8 #3 the deposit lists total luciferase, z-score -0.217; total luciferase, % of control 77.6; inactive.

5 successive records already listed:
WFDC5 #1 | total luciferase, z-score = 1.58; total luciferase, % of control = 113; call = inactive
WFDC5 #2 | total luciferase, z-score = 0.99; total luciferase, % of control = 102; call = inactive
WFDC5 #3 | total luciferase, z-score = 0.142; total luciferase, % of control = 84.7; call = inactive
WASL #1 | total luciferase, z-score = -1.48; total luciferase, % of control = 52.5; call = inactive
WASL #2 | total luciferase, z-score = 0.627; total luciferase, % of control = 94.4; call = inactive
